Binding data for two molecules are collected here from paper PMC5428262.

These are yes or no findings as the source states them, for the method shown. Binding seen in cells or lysates may run through a third protein. Binding calls can cover weak binding; strength is not graded here. Tags and fused reporters may be left off the sequences shown.

In assay [1] the target is native tomosyn (human islets) (human (endogenous in human islets)). The experiment in a line: co-IP; anti-tomosyn antibody (0.25 ug) and protein G agarose, overnight, 300 ug whole cell extract of INS 832/13 cells or human islets; lysis buffer with 1% Triton X-100, 150 mM NaCl, 25 mM N-ethylmaleimide; blot.
In assay [2] the target is GFP-tagged tomosyn1 (GFP-Tomosyn1), wild type (rat). In words: co-IP; GFP antiserum and protein G agarose, overnight, 300 ug extract of INS 832/13 cells expressing GFP-tomosyn1 constructs; lysis buffer with 1% Triton X-100, 150 mM NaCl, 25 mM N-ethylmaleimide; blot; cells in regular media or treated with 10 mM glucose or 30 mM KCl (15 min) in KRB.

B1: native secretagogin (human islets) (protein, UniProt O76038 1-276)
chain: MDSSREPTLGRLDAAGFWQVWQRFDADEKGYIEEKELDAFFLHMLMKLGTDDTVMKANLHKVKQQFMTTQDASKDGRIRMKELAGMFLSEDENFLLLFRRENPLDSSVEFMQIWRKYDADSSGFISAAELRNFLRDLFLHHKKAISEAKLEEYTGTMMKIFDRNKDGRLDLNDLARILALQENFLLQFKMDACSTEERKRDFEKIFAYYDVSKTGALEGPEVDGFVKDMMELVQPSISGVDLDKFREILLRHCDVNKDGKIQKSELALCLGLKINP
Turning to B1, in assay [1], the binding entry is “binds”.

B2: secretagogin (INS 832/13 cells) (protein, UniProt Q6R556 1-276)
chain: MDNAHRQTQAHLDAACFWQIWQRFDKDEKGYIKETELDAFFDDLLAKFGIEDTLMEENVQKMKEQLMVGHDISKEGRILMKELASMFLSEDENFLLFFRLETPLDNSVEFMQIWRKYDADSSGFISAAELSNFLRDLFLHHKKVISEAELEEYTSTMEKIFDRNKDGRLDLNDLARILALQENFLLQFKMDASSTEERKRDFEKIFAHYDVSKTGALEGPEVDGFVKDMMELVQPSISGVDLDKFREILLRHCDVNKDGKIQKSELALCLGLKINP
For the molecule B2, the binding result in assay [2] was “binds”.
